Data on 43 targets can be found in the supplement of paper PMC12067093, “Discovery and optimisation of a covalent ligand for TRIM25 and its application to targeted protein ubiquitination” (Chemical Science, 2025).

Chains of the proteins cited; added tags and fusions are not shown. Lines headed by an entry give the natural chain unless they say otherwise; changes in a name come on top.
UniProt P49915: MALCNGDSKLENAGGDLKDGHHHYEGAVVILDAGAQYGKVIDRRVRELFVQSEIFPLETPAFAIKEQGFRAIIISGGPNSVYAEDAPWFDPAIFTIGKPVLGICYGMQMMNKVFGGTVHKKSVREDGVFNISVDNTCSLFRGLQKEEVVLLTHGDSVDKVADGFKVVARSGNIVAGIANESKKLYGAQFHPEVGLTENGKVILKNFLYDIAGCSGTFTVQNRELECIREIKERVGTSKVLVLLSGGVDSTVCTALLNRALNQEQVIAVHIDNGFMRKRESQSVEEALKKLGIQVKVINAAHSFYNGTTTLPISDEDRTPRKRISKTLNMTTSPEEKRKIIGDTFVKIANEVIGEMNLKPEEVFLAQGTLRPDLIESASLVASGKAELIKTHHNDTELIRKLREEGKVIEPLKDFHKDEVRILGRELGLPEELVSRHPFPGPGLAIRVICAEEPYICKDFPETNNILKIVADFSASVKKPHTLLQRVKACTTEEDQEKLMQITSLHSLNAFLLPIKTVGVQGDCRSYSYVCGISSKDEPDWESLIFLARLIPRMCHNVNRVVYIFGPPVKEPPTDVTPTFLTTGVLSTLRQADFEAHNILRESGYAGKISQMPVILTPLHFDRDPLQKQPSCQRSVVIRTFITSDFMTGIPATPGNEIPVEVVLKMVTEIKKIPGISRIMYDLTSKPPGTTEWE
UniProt P46926: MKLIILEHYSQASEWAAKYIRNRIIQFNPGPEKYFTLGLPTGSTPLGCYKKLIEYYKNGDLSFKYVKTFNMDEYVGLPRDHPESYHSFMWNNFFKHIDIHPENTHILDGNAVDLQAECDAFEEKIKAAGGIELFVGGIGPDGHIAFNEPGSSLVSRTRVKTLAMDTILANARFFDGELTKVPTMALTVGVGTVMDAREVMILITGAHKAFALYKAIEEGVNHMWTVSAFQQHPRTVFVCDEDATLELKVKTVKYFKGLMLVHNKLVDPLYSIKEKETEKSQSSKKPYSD
UniProt Q14789: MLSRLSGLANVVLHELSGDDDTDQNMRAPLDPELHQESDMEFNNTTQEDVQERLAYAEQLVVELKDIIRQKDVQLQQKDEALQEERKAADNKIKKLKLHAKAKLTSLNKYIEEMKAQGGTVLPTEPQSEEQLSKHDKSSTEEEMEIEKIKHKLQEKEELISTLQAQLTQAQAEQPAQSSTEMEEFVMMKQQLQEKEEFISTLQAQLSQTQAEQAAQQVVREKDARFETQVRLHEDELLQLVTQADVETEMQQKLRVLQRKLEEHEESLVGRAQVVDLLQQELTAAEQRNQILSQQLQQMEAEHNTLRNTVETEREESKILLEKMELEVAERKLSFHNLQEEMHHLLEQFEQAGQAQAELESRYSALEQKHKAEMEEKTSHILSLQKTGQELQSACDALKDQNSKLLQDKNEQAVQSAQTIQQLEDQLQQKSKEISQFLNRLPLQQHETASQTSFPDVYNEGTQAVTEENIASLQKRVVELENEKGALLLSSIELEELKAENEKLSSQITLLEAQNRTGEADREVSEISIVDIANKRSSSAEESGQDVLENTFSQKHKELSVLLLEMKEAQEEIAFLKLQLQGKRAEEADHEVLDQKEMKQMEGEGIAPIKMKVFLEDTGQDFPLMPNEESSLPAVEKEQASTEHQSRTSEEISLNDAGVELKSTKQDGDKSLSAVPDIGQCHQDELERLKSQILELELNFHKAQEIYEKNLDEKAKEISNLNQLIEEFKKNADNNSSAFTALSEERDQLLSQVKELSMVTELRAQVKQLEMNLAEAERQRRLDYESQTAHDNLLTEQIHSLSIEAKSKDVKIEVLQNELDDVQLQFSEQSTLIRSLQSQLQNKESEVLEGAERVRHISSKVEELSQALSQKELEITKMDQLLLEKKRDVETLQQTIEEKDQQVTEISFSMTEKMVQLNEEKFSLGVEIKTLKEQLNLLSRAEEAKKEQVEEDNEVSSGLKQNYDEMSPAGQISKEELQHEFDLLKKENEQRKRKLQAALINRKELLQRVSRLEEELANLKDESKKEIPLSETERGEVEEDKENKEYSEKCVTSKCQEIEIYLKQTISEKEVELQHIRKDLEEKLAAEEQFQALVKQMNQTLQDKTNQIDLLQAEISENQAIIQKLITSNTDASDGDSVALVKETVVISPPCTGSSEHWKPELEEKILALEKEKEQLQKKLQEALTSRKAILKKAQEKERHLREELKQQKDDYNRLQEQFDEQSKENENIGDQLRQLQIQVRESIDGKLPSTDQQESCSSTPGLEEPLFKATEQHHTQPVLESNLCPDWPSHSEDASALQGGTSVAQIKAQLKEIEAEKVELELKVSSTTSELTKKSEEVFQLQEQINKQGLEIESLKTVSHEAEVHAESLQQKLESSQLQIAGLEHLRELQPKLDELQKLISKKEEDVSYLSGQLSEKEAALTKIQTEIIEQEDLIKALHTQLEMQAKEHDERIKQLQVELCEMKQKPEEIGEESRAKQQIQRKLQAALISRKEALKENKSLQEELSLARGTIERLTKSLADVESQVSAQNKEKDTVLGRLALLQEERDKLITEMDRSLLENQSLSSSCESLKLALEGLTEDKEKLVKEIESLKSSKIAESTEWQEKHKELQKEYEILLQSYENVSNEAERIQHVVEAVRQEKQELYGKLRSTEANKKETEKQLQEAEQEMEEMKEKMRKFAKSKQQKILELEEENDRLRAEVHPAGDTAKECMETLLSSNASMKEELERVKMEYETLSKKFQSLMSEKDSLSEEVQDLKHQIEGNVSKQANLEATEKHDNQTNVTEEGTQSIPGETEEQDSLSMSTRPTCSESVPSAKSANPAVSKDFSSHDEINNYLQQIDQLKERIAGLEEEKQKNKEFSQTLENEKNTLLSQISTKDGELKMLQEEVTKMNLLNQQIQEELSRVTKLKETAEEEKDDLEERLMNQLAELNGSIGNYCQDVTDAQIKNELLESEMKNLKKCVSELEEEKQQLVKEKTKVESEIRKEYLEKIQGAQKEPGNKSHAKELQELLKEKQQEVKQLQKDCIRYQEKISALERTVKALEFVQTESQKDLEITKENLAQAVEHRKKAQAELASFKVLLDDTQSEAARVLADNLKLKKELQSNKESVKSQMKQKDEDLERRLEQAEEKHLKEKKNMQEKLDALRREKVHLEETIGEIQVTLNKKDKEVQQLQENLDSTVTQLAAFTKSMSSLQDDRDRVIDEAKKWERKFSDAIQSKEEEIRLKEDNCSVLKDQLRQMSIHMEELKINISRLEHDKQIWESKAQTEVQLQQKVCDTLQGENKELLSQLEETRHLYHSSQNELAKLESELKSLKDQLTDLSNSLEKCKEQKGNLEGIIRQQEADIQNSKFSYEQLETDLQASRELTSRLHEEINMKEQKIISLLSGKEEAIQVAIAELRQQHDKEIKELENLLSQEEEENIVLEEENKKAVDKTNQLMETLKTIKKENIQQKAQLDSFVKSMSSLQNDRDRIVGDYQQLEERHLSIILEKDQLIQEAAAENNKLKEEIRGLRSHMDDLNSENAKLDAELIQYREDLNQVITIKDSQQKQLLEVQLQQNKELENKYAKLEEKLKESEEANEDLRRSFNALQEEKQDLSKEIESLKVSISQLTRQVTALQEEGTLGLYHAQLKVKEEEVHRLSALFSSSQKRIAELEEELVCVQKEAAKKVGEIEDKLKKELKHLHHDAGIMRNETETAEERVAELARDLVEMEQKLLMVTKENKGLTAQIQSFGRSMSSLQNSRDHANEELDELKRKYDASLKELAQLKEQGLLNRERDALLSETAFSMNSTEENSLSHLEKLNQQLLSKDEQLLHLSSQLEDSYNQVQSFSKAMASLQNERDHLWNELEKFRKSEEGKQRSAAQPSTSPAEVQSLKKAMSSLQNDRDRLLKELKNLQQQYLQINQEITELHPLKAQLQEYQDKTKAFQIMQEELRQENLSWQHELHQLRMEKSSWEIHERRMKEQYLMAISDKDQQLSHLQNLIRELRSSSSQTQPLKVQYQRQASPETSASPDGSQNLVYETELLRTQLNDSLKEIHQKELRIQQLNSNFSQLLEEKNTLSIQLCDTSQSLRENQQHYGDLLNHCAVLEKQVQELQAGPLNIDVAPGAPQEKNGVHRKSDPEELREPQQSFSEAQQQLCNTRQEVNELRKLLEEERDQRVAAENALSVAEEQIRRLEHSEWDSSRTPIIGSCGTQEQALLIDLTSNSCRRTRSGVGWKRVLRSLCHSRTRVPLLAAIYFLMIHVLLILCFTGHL
UniProt Q92896: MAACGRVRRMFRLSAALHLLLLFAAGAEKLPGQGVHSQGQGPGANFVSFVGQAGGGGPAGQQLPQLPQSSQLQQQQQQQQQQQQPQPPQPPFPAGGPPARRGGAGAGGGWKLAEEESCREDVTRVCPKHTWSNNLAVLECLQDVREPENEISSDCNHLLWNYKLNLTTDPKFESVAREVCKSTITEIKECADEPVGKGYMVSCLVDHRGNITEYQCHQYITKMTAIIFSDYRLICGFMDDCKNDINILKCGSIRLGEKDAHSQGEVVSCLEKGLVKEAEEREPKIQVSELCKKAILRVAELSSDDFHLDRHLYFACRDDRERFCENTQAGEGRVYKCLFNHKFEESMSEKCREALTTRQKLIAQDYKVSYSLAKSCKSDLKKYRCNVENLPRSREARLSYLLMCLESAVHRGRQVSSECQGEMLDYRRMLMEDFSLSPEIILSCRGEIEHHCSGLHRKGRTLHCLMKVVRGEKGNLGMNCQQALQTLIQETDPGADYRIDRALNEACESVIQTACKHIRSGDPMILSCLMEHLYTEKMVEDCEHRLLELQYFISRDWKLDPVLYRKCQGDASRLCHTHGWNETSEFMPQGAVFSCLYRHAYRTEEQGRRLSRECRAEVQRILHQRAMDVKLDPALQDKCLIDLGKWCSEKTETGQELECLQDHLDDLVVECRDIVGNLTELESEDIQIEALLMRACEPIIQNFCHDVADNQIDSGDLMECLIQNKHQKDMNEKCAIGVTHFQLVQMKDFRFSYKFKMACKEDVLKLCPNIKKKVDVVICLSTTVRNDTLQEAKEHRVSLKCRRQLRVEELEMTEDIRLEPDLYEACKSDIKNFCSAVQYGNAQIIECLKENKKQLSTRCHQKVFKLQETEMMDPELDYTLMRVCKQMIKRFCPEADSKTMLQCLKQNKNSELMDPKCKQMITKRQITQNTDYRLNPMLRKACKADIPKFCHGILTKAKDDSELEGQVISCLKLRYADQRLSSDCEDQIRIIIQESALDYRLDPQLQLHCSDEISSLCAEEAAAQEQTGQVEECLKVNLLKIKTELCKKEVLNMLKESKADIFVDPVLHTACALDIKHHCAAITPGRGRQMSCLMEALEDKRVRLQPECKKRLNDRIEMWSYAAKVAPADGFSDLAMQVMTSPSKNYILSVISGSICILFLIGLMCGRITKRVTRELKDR
UniProt Q9HC38: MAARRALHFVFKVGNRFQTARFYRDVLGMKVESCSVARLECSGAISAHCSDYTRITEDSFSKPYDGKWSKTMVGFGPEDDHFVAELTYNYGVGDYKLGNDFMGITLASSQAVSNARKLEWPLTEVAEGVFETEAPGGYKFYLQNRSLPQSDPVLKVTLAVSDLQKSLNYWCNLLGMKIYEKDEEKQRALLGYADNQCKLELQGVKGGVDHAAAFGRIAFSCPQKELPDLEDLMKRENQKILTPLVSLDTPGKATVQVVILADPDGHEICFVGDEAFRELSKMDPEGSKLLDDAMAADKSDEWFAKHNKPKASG
UniProt Q86VQ1: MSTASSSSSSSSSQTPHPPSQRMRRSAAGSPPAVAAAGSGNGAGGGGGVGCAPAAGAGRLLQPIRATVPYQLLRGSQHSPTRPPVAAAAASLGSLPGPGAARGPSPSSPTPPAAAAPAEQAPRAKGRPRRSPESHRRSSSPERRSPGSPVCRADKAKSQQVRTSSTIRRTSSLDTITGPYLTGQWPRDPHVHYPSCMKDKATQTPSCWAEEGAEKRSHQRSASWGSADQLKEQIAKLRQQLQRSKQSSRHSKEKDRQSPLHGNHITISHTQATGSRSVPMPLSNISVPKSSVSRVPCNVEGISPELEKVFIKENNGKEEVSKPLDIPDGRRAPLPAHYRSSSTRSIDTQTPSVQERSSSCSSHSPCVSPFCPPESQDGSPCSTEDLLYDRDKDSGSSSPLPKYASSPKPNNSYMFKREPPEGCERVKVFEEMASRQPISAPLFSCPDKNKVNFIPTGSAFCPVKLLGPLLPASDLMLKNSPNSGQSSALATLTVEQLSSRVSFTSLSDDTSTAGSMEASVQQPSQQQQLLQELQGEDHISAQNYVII
UniProt Q9NS18: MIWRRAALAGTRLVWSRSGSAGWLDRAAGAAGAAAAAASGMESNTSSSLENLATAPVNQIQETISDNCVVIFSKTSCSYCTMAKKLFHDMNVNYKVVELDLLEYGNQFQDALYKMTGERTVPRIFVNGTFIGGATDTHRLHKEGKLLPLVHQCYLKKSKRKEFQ

Compound in this assay: Cc1cc(ccc1-c1ccccc1)C(=O)N1CCCN(CC1)C(=O)CCl [compound 10]
Description: probe-labelled cysteine peptide fold change vs DMSO (competition) (log2 fold change); higher = less target engagement (more negative = stronger competition). Conditions: THP-1, incubation time: 4 h.

Some of the results follow.
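Also: competitive profiling in live THP-1 cells: cysteine peptides tagged with an iodoacetamide desthiobiotin (IA-DTB) probe, intensity after compound treatment relative to DMSO-treated cells.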

Regarding “GOT2_P00505_187+212_TCGFDFTGAVEDISKIPEQSVLLLHACAHNPTGVDPRPEQWK (UniProt P00505)”, the “probe-labelled cysteine peptide fold change” value is, setting by setting: (10 µM) -0.132; (50 µM) 0.151.
Consider “GMPS_P49915_554_MCHNVNR (UniProt P49915)”, for which the “probe-labelled cysteine peptide fold change” value is, setting by setting: (10 µM) -0.0487; (50 µM) 0.0835.
Take “GNPDA1_P46926_239_TVFVCDEDATLELK (UniProt P46926)”: the “probe-labelled cysteine peptide fold change” value reads like this: (10 µM) 0.043; (50 µM) -0.0344.
As to “GOLGB1_Q14789_3144_KSDPEELREPQQSFSEAQQQLCNTR (UniProt Q14789)”, the “probe-labelled cysteine peptide fold change” value by setting is: (10 µM) 0.0431; (50 µM) -0.388.
Turning to GNAS_P63092_3_GCLGNSK (UniProt P63092), the “probe-labelled cysteine peptide fold change” value is -0.17 (10 µM) and -0.377 (50 µM).
Consider “GLG1_Q92896_671_TETGQELECLQDHLDDLVVECR (UniProt Q92896)”, for which the “probe-labelled cysteine peptide fold change” value was -0.296 (10 µM) and 0.182 (50 µM).
As to “GPC4_O75487_341_VFQGCGPPKPLPAGR (UniProt O75487)”, the “probe-labelled cysteine peptide fold change” value (10 µM) was -0.353 and the “probe-labelled cysteine peptide fold change” value (50 µM) was -0.584.
In the case of “GMPS_P49915_530_SYSYVCGISSK (UniProt P49915)”, the “probe-labelled cysteine peptide fold change” value by setting is: (10 µM) 0.0256; (50 µM) 0.431.
Turning to “GOLGA2_Q08379_356_CEAPDANQQLQQAMEER (UniProt Q08379)”, the “probe-labelled cysteine peptide fold change” value reads like this: (10 µM) -0.0844; (50 µM) 0.167.
Take “GLG1_Q92896_950_FCHGILTK (UniProt Q92896)”: the “probe-labelled cysteine peptide fold change” value (10 µM) was -0.298 and the “probe-labelled cysteine peptide fold change” value (50 µM) amounted to 0.0885.
“GNL3L_Q9NVN8_490_IGDLTGYCTNPNR (UniProt Q9NVN8)”: the “probe-labelled cysteine peptide fold change” value (10 µM) is 0.0305 and the “probe-labelled cysteine peptide fold change” value (50 µM) is 0.161.
On to “GPATCH2_Q9NW75_188_TMTQPPEGCRDQDMDSDR (UniProt Q9NW75)”, for which the “probe-labelled cysteine peptide fold change” value by setting is: (10 µM) -0.107; (50 µM) -0.348.
The corresponding values for “GMPR2_Q9P2T1_205_TGVGYPQLSAVMECADAAHGLK (UniProt Q9P2T1)” are -0.0196 and -0.162.
The corresponding values for “GLG1_Q92896_1092_QMSCLMEALEDK (UniProt Q92896)” are -0.0727 and -0.0185.
The corresponding values for “GLG1_Q92896_269_DAHSQGEVVSCLEK (UniProt Q92896)” are -0.387 and 0.00158.
Turning to “GLOD4_Q9HC38-2_45_AACNGPYDGK (UniProt Q9HC38)”, the “probe-labelled cysteine peptide fold change” value is 0.172 (10 µM) and 0.181 (50 µM).
For “GMPS_P49915_252_VLVLLSGGVDSTVCTALLNR (UniProt P49915)”, the “probe-labelled cysteine peptide fold change” value by setting is: (10 µM) 0.015; (50 µM) 0.275.
For “GLCCI1_Q86VQ1_207_ATQTPSCWAEEGAEKR (UniProt Q86VQ1)”, the “probe-labelled cysteine peptide fold change” value runs as follows: (10 µM) -0.296; (50 µM) -0.564.
Consider “GNPDA1_P46926_48_YFTLGLPTGSTPLGCYK (UniProt P46926)”, for which the “probe-labelled cysteine peptide fold change” value by setting is: (10 µM) -0.0656; (50 µM) 0.228.
For “GOPC_Q9HD26_327_CGGLHVGDAILAVNGVNLR (UniProt Q9HD26)”, the “probe-labelled cysteine peptide fold change” value was found to be 0.157 (10 µM) and 0.205 (50 µM).
Turning to “GNPNAT1_Q96EK6_45_EVDWSQNTATFSPAISPTHPGEGLVLRPLCTADLNR (UniProt Q96EK6)”, the “probe-labelled cysteine peptide fold change” value reads like this: (10 µM) 0.133; (50 µM) -0.193.
The corresponding values for “GPT2_Q8TD30_265_VLCIINPGNPTGQVQSR (UniProt Q8TD30)” are 0.0968 and -0.0557.
The corresponding values for “GOLGB1_Q14789_1462_QLQVELCEMK (UniProt Q14789)” are -0.277 and -0.195.
Regarding “GOLGA4_Q13439_1253_ISHCQHR (UniProt Q13439)”, the “probe-labelled cysteine peptide fold change” value runs as follows: (10 µM) -0.0373; (50 µM) 0.0512.
On to “GLG1_Q92896_190_ECADEPVGK (UniProt Q92896)”, for which the “probe-labelled cysteine peptide fold change” value runs as follows: (10 µM) -0.0619; (50 µM) 0.229.
Take “GNL3_Q9BVP2_131_LYCQELKK (UniProt Q9BVP2)”: the “probe-labelled cysteine peptide fold change” value is -0.195 (10 µM) and -0.305 (50 µM).
The corresponding values for “GNPDA1_P46926_118_HIDIHPENTHILDGNAVDLQAECDAFEEK (UniProt P46926)” are -0.112 and 0.04.
The corresponding values for “GPSM1_Q86YR5_128_FDEAAVCCQR (UniProt Q86YR5)” are -0.159 and -0.231.
In the case of “GPI_P06744_404_MIPCDFLIPVQTQHPIRK (UniProt P06744)”, the “probe-labelled cysteine peptide fold change” value (10 µM) is 0.0513 and the “probe-labelled cysteine peptide fold change” value (50 µM) is -0.0762.
With “GNPTG_Q9UJJ9_157_LAHVSEPSTCVYALTFETPLVCHPHALLVYPTLPEALQR (UniProt Q9UJJ9)”, the “probe-labelled cysteine peptide fold change” value is 0.244 (10 µM) and 0.134 (50 µM).
On to “GPAA1_O43292_266_GGLLCTLQGK (UniProt O43292)”, for which the “probe-labelled cysteine peptide fold change” value runs as follows: (10 µM) -0.168; (50 µM) -0.0244.
The corresponding values for “GMPS_P49915_523_TVGVQGDCR (UniProt P49915)” are -0.066 and -0.217.
Regarding “GLCCI1_Q86VQ1_445_QPISAPLFSCPDK (UniProt Q86VQ1)”, the “probe-labelled cysteine peptide fold change” value is, setting by setting: (10 µM) -0.272; (50 µM) -0.551.
On to “GPD1L_Q8N335_216_NIVAVGAGFCDGLR (UniProt Q8N335)”, for which the “probe-labelled cysteine peptide fold change” value (10 µM) is -0.0284 and the “probe-labelled cysteine peptide fold change” value (50 µM) is 0.115.
The corresponding values for “GPATCH8_Q9UKJ3_795_HKGELPPSSCQR (UniProt Q9UKJ3)” are 0.176 and -0.284.
As to “GLRX3_O76003_146_LTHAAPCMLFMK (UniProt O76003)”, the “probe-labelled cysteine peptide fold change” value by setting is: (10 µM) -0.141; (50 µM) -0.29.
For “GLOD4_Q9HC38_197_ALLGYADNQCK (UniProt Q9HC38)”, the “probe-labelled cysteine peptide fold change” value is, setting by setting: (10 µM) 0.26; (50 µM) 0.109.
As to “GLA_P06280_382_GVACNPACFITQLLPVK (UniProt P06280)”, the “probe-labelled cysteine peptide fold change” value (10 µM) is -0.104 and the “probe-labelled cysteine peptide fold change” value (50 µM) came to 0.17.
As for “GORAB_Q5T7V8_354_CQEQAVSPK (UniProt Q5T7V8)”, the “probe-labelled cysteine peptide fold change” value is, setting by setting: (10 µM) -0.428; (50 µM) -0.114.
As to “GLRX2_Q9NS18_153_LLPLVHQCYLK (UniProt Q9NS18)”, the “probe-labelled cysteine peptide fold change” value runs as follows: (10 µM) -0.235; (50 µM) -0.0172.
In the case of “GOPC_Q9HD26_408_LYLDELEGGGNPGASCK (UniProt Q9HD26)”, the “probe-labelled cysteine peptide fold change” value is, setting by setting: (10 µM) -0.33; (50 µM) -0.268.
Consider “GNAI2_P04899_326_EIYTHFTCATDTK (UniProt P04899)”, for which the “probe-labelled cysteine peptide fold change” value is 0.0663 (10 µM) and -0.0637 (50 µM).
Turning to “GLO1_Q04760_139_GFGHIGIAVPDVYSACKR (UniProt Q04760)”, the “probe-labelled cysteine peptide fold change” value (10 µM) was -0.123 and the “probe-labelled cysteine peptide fold change” value (50 µM) was -0.303.
